Assay results from the supplement of paper PMC6411743.
± gives the standard deviation of the averaged measurements. Only a part is listed here, and it is no random draw.

Sequences of proteins named here, by UniProt entry; tags and fusion partners are left off. A change or cut given only in a name is not applied to a line headed by its entry.
UniProt Q96BW5: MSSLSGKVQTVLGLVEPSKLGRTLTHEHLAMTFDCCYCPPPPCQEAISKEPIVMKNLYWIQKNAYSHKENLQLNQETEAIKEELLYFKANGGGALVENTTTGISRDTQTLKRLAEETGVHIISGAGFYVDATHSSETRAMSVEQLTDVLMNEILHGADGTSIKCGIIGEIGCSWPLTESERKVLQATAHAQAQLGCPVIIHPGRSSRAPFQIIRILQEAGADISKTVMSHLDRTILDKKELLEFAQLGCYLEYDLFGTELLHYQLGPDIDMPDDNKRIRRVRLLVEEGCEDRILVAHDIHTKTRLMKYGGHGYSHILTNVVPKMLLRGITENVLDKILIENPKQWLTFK
UniProt Q96HI0: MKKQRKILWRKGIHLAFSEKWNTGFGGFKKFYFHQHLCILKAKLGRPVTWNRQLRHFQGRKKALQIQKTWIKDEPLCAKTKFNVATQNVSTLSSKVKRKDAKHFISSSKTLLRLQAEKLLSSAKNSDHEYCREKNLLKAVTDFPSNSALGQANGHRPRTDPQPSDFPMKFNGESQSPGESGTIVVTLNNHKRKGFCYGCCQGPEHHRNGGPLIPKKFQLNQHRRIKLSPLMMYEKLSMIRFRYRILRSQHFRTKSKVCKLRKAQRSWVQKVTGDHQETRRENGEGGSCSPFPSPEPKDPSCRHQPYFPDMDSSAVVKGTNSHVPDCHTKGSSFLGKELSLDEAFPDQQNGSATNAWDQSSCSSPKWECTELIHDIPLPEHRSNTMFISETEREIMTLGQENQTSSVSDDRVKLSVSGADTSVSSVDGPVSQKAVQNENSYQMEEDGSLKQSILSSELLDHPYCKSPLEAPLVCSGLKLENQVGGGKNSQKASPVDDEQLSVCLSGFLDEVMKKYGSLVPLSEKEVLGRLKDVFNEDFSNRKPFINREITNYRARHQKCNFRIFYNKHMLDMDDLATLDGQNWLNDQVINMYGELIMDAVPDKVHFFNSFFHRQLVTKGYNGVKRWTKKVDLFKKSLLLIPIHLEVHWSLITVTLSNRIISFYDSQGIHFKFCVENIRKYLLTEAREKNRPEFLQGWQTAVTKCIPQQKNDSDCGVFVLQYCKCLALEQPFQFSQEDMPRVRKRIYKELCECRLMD
UniProt Q96BR5: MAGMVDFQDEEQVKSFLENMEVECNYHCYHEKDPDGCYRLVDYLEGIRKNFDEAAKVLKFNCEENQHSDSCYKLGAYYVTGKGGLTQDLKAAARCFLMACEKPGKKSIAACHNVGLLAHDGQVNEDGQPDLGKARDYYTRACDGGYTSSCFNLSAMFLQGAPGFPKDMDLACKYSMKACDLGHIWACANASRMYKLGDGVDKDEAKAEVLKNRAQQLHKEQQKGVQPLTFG
UniProt Q96N66: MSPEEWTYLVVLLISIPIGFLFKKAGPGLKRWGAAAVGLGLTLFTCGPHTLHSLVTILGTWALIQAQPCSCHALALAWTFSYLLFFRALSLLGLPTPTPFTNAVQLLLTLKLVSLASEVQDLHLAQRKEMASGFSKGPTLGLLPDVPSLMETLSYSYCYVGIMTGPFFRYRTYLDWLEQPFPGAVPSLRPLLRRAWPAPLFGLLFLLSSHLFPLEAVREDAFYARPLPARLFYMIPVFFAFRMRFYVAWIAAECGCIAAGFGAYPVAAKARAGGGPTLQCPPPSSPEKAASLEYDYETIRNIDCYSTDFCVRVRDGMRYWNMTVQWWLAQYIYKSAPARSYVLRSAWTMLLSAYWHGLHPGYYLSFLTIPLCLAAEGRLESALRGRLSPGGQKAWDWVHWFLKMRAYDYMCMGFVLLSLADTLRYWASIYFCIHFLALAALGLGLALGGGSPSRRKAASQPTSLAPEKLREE
UniProt Q96QE3: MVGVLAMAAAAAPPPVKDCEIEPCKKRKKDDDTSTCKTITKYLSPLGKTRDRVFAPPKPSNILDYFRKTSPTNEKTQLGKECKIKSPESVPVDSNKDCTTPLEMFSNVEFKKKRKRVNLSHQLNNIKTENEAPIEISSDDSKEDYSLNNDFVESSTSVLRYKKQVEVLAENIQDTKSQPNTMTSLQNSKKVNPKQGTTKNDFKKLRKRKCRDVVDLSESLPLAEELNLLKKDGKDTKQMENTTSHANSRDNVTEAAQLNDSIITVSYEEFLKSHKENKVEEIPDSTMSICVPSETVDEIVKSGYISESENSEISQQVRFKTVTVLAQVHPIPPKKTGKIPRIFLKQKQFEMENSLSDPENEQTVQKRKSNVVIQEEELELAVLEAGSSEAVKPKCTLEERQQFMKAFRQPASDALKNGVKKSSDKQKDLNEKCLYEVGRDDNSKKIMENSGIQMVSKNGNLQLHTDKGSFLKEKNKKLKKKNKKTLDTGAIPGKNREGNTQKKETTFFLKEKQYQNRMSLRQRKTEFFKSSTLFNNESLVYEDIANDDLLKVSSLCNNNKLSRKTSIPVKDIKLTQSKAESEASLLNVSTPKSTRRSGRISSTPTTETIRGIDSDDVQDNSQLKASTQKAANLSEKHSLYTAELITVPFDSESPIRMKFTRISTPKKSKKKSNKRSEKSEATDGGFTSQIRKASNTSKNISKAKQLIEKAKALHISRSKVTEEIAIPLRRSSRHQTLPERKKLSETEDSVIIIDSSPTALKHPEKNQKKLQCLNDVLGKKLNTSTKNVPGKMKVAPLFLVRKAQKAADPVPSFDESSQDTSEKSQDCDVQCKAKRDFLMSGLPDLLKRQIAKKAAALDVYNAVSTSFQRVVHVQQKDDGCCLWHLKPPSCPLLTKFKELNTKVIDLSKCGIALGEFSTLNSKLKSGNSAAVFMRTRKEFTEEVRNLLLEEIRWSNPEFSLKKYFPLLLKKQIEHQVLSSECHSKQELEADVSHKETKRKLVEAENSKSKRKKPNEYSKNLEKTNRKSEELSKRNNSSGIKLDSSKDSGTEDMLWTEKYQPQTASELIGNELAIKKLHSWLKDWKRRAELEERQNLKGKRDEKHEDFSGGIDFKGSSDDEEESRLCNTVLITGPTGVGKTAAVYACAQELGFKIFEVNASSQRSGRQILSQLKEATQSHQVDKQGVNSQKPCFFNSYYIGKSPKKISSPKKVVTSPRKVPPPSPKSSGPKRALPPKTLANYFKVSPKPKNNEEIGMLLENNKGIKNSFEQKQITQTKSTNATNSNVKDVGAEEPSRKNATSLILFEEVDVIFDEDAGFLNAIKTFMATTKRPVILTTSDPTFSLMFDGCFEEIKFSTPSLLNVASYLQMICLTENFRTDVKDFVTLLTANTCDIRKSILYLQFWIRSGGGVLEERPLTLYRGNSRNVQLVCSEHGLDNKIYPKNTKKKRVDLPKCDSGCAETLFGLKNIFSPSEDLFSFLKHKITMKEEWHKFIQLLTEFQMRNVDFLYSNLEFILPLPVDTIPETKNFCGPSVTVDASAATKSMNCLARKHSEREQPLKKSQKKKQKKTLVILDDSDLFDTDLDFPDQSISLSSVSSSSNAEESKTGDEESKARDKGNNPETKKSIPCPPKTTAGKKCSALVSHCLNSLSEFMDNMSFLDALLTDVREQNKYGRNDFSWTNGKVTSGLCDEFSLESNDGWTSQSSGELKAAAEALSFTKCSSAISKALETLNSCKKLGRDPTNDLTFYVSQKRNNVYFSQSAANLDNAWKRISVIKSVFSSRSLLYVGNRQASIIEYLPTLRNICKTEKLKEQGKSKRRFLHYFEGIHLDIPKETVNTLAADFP
UniProt Q96S55: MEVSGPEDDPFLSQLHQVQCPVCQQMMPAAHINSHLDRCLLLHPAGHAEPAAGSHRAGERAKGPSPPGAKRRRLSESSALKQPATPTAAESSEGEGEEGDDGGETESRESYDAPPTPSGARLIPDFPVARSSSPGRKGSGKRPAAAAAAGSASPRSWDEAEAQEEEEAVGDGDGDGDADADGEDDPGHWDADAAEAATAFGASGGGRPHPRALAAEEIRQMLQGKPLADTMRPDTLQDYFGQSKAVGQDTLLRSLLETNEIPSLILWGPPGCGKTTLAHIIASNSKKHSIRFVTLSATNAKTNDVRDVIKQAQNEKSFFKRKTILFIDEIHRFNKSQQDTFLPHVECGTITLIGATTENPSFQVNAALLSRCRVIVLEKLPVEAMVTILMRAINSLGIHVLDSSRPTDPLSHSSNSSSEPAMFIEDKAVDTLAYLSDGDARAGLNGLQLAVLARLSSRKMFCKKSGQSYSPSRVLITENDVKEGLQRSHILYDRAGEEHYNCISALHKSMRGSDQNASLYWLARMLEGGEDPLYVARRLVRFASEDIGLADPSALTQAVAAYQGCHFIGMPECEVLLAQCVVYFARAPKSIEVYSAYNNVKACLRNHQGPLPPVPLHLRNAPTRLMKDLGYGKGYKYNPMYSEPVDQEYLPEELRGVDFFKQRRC
UniProt Q96FJ0: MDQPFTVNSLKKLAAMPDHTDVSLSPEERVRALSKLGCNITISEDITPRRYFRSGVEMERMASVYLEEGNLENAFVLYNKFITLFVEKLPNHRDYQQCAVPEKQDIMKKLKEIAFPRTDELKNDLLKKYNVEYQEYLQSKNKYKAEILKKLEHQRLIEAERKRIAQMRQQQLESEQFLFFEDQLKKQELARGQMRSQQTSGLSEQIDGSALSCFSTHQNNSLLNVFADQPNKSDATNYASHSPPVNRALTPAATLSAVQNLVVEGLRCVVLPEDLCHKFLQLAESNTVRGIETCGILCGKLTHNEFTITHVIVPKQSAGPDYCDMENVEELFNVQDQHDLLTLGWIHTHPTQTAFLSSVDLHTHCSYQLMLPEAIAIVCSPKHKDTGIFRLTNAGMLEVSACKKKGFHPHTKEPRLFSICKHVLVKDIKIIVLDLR
UniProt Q96HR9: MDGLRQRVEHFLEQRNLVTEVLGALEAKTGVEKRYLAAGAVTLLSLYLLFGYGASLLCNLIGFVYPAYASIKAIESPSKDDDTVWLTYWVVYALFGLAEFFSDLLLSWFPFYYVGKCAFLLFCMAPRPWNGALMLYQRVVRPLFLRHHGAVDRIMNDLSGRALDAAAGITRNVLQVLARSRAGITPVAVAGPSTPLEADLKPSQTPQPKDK
UniProt Q96S59, whole entry: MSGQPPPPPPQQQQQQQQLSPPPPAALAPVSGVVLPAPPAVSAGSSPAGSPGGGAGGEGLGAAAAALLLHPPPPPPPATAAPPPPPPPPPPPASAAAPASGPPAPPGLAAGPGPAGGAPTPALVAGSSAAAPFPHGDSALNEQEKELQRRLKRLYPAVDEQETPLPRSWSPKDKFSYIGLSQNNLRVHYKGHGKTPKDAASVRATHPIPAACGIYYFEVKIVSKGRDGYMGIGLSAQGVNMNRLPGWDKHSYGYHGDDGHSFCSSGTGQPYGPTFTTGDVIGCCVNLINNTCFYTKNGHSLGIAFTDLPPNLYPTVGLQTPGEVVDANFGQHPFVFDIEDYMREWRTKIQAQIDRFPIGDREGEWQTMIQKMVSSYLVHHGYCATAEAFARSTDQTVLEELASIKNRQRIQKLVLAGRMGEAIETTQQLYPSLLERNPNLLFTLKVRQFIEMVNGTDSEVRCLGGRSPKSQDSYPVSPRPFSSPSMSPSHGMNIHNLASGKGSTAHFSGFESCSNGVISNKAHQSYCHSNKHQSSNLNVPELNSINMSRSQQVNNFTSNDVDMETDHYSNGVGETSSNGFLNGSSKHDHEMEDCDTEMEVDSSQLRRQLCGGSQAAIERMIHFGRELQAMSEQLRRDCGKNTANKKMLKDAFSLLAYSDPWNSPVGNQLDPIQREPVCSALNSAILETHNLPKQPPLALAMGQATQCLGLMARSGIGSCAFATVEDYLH
UniProt Q96G46: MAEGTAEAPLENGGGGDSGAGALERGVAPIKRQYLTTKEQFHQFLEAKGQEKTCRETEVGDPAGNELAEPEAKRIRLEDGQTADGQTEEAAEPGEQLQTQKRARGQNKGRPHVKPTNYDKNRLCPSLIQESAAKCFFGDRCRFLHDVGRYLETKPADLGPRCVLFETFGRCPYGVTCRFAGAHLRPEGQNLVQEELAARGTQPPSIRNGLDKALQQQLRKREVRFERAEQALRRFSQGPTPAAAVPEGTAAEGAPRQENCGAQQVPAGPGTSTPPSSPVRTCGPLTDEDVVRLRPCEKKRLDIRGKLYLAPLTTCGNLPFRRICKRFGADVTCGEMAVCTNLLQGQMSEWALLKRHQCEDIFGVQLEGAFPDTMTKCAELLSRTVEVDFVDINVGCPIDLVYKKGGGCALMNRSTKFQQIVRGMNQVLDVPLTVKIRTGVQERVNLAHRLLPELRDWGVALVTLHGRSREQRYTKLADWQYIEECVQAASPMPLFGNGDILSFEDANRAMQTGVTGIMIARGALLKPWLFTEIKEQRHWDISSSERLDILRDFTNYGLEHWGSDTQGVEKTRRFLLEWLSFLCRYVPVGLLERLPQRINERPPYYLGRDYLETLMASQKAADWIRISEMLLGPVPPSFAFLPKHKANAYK
UniProt Q96G61: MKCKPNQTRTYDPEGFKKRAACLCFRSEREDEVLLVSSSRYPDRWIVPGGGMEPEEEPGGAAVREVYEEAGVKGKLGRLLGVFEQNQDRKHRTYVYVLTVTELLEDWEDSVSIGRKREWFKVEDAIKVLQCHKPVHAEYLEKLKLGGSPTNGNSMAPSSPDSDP

Compound: Nc1ncnc2c1ncn2[C@@H]1O[C@H](COP(=O)(O)OP(=O)(O)OP(=O)(O)O)[C@@H](O)[C@H]1O [adenosine triphosphate]
Test: NP40-soluble protein abundance relative to vehicle (solubility fold change) (ratio); higher = more soluble protein in presence of ATP
Method in brief: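 Data come from three independent experiments in which Dounce-homogenised Jurkat crude lysate was treated at eight concentrations from 0.1 to 10 mM. Treatment ran 10 min at room temperature and then 3 min at 37 °C, after which 0.8% NP40 and benzonase were added for 60 min at 4 °C before ultracentrifugation. The supernatant underwent TMT labelling and LC-MS/MS, and vsn-normalised intensities were expressed as fold change against the detergent-processed vehicle in each replicate.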

Target	NP40-soluble protein abundance (concentration: 1mM)	NP40-soluble protein abundance (concentration: 2mM)	NP40-soluble protein abundance (concentration: 4mM)	NP40-soluble protein abundance (concentration: 6mM)	NP40-soluble protein abundance (concentration: 8mM)	NP40-soluble protein abundance (concentration: 10mM)
OPTN (UniProt Q96CV9)	0.935 ± 0.065	0.96 ± 0.034	0.961 ± 0.038	0.958 ± 0.051	0.924 ± 0.024	0.931 ± 0.012
FAHD2A (UniProt Q96GK7)	1.03 ± 0.014	1.04 ± 0.014	1.012 ± 0.0076	1 ± 0.048	1 ± 0.014	0.985 ± 0.015
VCPIP1 (UniProt Q96JH7)	1.03 ± 0.07	0.996 ± 0.045	1 ± 0.088	1.02 ± 0.072	1.01 ± 0.069	0.987 ± 0.037
UniProt Q96BW5 and related entries	1.02 ± 0.052	1.01 ± 0.043	0.993 ± 0.044	0.96 ± 0.08	0.981 ± 0.042	0.988 ± 0.047
DHTKD1 (UniProt Q96HY7)	1.06 ± 0.08	1.02 ± 0.078	1.04 ± 0.066	0.989 ± 0.068	1.06 ± 0.081	1.01 ± 0.017
UniProt Q96DU3-2|Q96DU3	0.928 ± 0.034	0.945 ± 0.033	0.9556 ± 0.0076	0.968 ± 0.028	0.911 ± 0.022	0.905 ± 0.03
TUBGCP3 (UniProt Q96CW5)	1.08 ± 0.08	1.02 ± 0.077	1.06 ± 0.079	1.03 ± 0.17	1.13 ± 0.14	1.13 ± 0.15
SMG1 (UniProt Q96Q15)	1 ± 0.074	0.97 ± 0.044	1.01 ± 0.05	0.992 ± 0.032	1.03 ± 0.028	1.04 ± 0.012
UniProt Q96GM5 and related entries	1.06 ± 0.033	1.05 ± 0.026	1.056 ± 0.0072	1.03 ± 0.016	1.07 ± 0.017	1.04 ± 0.036
CCDC97 (UniProt Q96F63)	0.958 ± 0.057	0.949 ± 0.056	0.959 ± 0.072	0.969 ± 0.076	0.934 ± 0.028	0.91 ± 0.056
UniProt Q96HI0 and related entries	1.02 ± 0.056	0.9525 ± 0.0094	1.05 ± 0.096	0.8897 ± 0.004	0.948 ± 0.042	0.886 ± 0.029
SGTB (UniProt Q96EQ0)	0.944 ± 0.2	0.915 ± 0.13	0.918 ± 0.11	0.915 ± 0.1	0.867 ± 0.11	0.797 ± 0.17
UniProt Q96Q11 and related entries	0.963 ± 0.031	0.979 ± 0.036	0.953 ± 0.031	0.967 ± 0.073	0.945 ± 0.035	0.965 ± 0.019
UniProt Q96BR5	0.946 ± 0.022	0.975 ± 0.019	0.971 ± 0.033	0.9869 ± 0.0064	0.949 ± 0.036	0.972 ± 0.041
UniProt Q96KF7	0.977 ± 0.061	1.02 ± 0.016	1.04 ± 0.049	1.07 ± 0.037	0.998 ± 0.023	1 ± 0.022
UniProt Q96N66 and related entries	1.03 ± 0.089	1.01 ± 0.071	0.963 ± 0.058	0.961 ± 0.086	1 ± 0.053	1 ± 0.049
UniProt Q96T21 and related entries	0.982 ± 0.028	0.969 ± 0.072	0.97 ± 0.082	0.974 ± 0.1	1.01 ± 0.052	1.04 ± 0.089
UniProt Q96EY1 and related entries	1.05 ± 0.042	1.05 ± 0.081	1.05 ± 0.067	1.06 ± 0.13	1.13 ± 0.12	1.22 ± 0.17
DHRS1 (UniProt Q96LJ7)	1.07 ± 0.051	1.02 ± 0.017	1.03 ± 0.018	1.04 ± 0.027	0.981 ± 0.082	0.972 ± 0.027
SLC7A6OS (UniProt Q96CW6)	0.937 ± 0.07	0.96 ± 0.023	0.988 ± 0.046	0.976 ± 0.075	0.925 ± 0.046	0.944 ± 0.072

Target	NP40-soluble protein abundance (concentration: 1mM)	NP40-soluble protein abundance (concentration: 2mM)	NP40-soluble protein abundance (concentration: 4mM)	NP40-soluble protein abundance (concentration: 6mM)	NP40-soluble protein abundance (concentration: 8mM)	NP40-soluble protein abundance (concentration: 10mM)
ALG14 (UniProt Q96F25)	1.15 ± 0.022	1.07 ± 0.1	1.15 ± 0.11	1.14 ± 0.025	1.2 ± 0.094	1.11 ± 0.13
LTV1 (UniProt Q96GA3)	1.06 ± 0.065	1.02 ± 0.1	0.971 ± 0.089	1.06 ± 0.14	0.986 ± 0.07	0.994 ± 0.096
PCMTD1 (UniProt Q96MG8)	0.927 ± 0.026	0.897 ± 0.031	0.854 ± 0.054	0.853 ± 0.036	0.826 ± 0.074	0.844 ± 0.044
UniProt Q96P47 and related entries	1.04 ± 0.043	1.08 ± 0.09	1.17 ± 0.087	1.11 ± 0.1	1.2 ± 0.29	1.16 ± 0.26
CRAMP1 (UniProt Q96RY5)	0.93 ± 0.01	0.88 ± 0.042	0.996 ± 0.11	0.948 ± 0.14	0.966 ± 0.13	0.99 ± 0.095
EXOC2 (UniProt Q96KP1)	0.975 ± 0.073	1.02 ± 0.081	1 ± 0.014	0.956 ± 0.038	0.9934 ± 0.0077	1.01 ± 0.024
DCPS (UniProt Q96C86)	1 ± 0.027	0.974 ± 0.045	0.958 ± 0.044	1.01 ± 0.058	0.984 ± 0.069	0.937 ± 0.052
UniProt Q96KA5 and related entries	0.996 ± 0.075	0.967 ± 0.038	0.979 ± 0.034	0.939 ± 0.068	0.964 ± 0.028	0.98 ± 0.035
UniProt Q96RQ3 and related entries	1.03 ± 0.037	1.02 ± 0.018	1.01 ± 0.023	0.987 ± 0.076	1.01 ± 0.022	1.01 ± 0.032
UniProt Q96JG6	1 ± 0.08	1 ± 0.024	0.993 ± 0.053	0.967 ± 0.084	0.993 ± 0.05	0.996 ± 0.029
UniProt Q96MX0 and related entries	0.774 ± 0.017	0.722 ± 0.027	0.711 ± 0.0094	0.581 ± 0.048	0.595 ± 0.022	0.595 ± 0.1
VPS35 (UniProt Q96QK1)	0.971 ± 0.071	0.968 ± 0.073	0.95 ± 0.018	0.889 ± 0.084	0.941 ± 0.036	0.958 ± 0.035
ATAD5 (UniProt Q96QE3)	1.19 ± 0.09	1.23 ± 0.1	1.31 ± 0.11	1.42 ± 0.27	1.23 ± 0.067	1.27 ± 0.072
PANX1 (UniProt Q96RD7)	0.96 ± 0.061	0.94 ± 0.046	0.947 ± 0.03	0.993 ± 0.055	0.929 ± 0.063	0.968 ± 0.091
CDCA5 (UniProt Q96FF9)	1.1 ± 0.098	1.06 ± 0.056	1.06 ± 0.029	1.07 ± 0.11	1.04 ± 0.052	1.05 ± 0.044
GCC1 (UniProt Q96CN9)	0.95 ± 0.031	0.979 ± 0.019	0.968 ± 0.033	0.984 ± 0.02	0.928 ± 0.016	0.923 ± 0.025
UniProt Q96PE3 and related entries	1.03 ± 0.076	1 ± 0.073	1.02 ± 0.077	0.935 ± 0.098	1.03 ± 0.053	1 ± 0.041
UniProt Q96S55 and related entries	1.03 ± 0.037	1.02 ± 0.05	0.999 ± 0.054	1.02 ± 0.073	1.03 ± 0.033	1.07 ± 0.05
UniProt Q96FJ0 and related entries	1.12 ± 0.068	1.12 ± 0.13	1.2 ± 0.12	1.16 ± 0.14	1.22 ± 0.12	1.22 ± 0.15
OMA1 (UniProt Q96E52)	0.992 ± 0.054	1.02 ± 0.068	0.995 ± 0.068	0.987 ± 0.074	0.997 ± 0.12	0.978 ± 0.076

16 successive records out of the list so far, quoted:
Target	NP40-soluble protein abundance (concentration: 1mM)	NP40-soluble protein abundance (concentration: 2mM)	NP40-soluble protein abundance (concentration: 4mM)	NP40-soluble protein abundance (concentration: 6mM)	NP40-soluble protein abundance (concentration: 8mM)	NP40-soluble protein abundance (concentration: 10mM)
UniProt Q96Q11 and related entries	0.963 ± 0.031	0.979 ± 0.036	0.953 ± 0.031	0.967 ± 0.073	0.945 ± 0.035	0.965 ± 0.019
UniProt Q96BR5	0.946 ± 0.022	0.975 ± 0.019	0.971 ± 0.033	0.9869 ± 0.0064	0.949 ± 0.036	0.972 ± 0.041
UniProt Q96KF7	0.977 ± 0.061	1.02 ± 0.016	1.04 ± 0.049	1.07 ± 0.037	0.998 ± 0.023	1 ± 0.022
UniProt Q96N66 and related entries	1.03 ± 0.089	1.01 ± 0.071	0.963 ± 0.058	0.961 ± 0.086	1 ± 0.053	1 ± 0.049
UniProt Q96T21 and related entries	0.982 ± 0.028	0.969 ± 0.072	0.97 ± 0.082	0.974 ± 0.1	1.01 ± 0.052	1.04 ± 0.089
UniProt Q96EY1 and related entries	1.05 ± 0.042	1.05 ± 0.081	1.05 ± 0.067	1.06 ± 0.13	1.13 ± 0.12	1.22 ± 0.17
DHRS1 (UniProt Q96LJ7)	1.07 ± 0.051	1.02 ± 0.017	1.03 ± 0.018	1.04 ± 0.027	0.981 ± 0.082	0.972 ± 0.027
SLC7A6OS (UniProt Q96CW6)	0.937 ± 0.07	0.96 ± 0.023	0.988 ± 0.046	0.976 ± 0.075	0.925 ± 0.046	0.944 ± 0.072
ALG14 (UniProt Q96F25)	1.15 ± 0.022	1.07 ± 0.1	1.15 ± 0.11	1.14 ± 0.025	1.2 ± 0.094	1.11 ± 0.13
LTV1 (UniProt Q96GA3)	1.06 ± 0.065	1.02 ± 0.1	0.971 ± 0.089	1.06 ± 0.14	0.986 ± 0.07	0.994 ± 0.096
PCMTD1 (UniProt Q96MG8)	0.927 ± 0.026	0.897 ± 0.031	0.854 ± 0.054	0.853 ± 0.036	0.826 ± 0.074	0.844 ± 0.044
UniProt Q96P47 and related entries	1.04 ± 0.043	1.08 ± 0.09	1.17 ± 0.087	1.11 ± 0.1	1.2 ± 0.29	1.16 ± 0.26
CRAMP1 (UniProt Q96RY5)	0.93 ± 0.01	0.88 ± 0.042	0.996 ± 0.11	0.948 ± 0.14	0.966 ± 0.13	0.99 ± 0.095
EXOC2 (UniProt Q96KP1)	0.975 ± 0.073	1.02 ± 0.081	1 ± 0.014	0.956 ± 0.038	0.9934 ± 0.0077	1.01 ± 0.024
DCPS (UniProt Q96C86)	1 ± 0.027	0.974 ± 0.045	0.958 ± 0.044	1.01 ± 0.058	0.984 ± 0.069	0.937 ± 0.052
UniProt Q96KA5 and related entries	0.996 ± 0.075	0.967 ± 0.038	0.979 ± 0.034	0.939 ± 0.068	0.964 ± 0.028	0.98 ± 0.035

Next records follow:

Target	NP40-soluble protein abundance (concentration: 1mM)	NP40-soluble protein abundance (concentration: 2mM)	NP40-soluble protein abundance (concentration: 4mM)	NP40-soluble protein abundance (concentration: 6mM)	NP40-soluble protein abundance (concentration: 8mM)	NP40-soluble protein abundance (concentration: 10mM)
UniProt Q96BN2	0.97 ± 0.027	1.05 ± 0.043	1.05 ± 0.045	1.05 ± 0.067	1.07 ± 0.049	1.05 ± 0.055
HSPBAP1 (UniProt Q96EW2)	0.947 ± 0.085	0.931 ± 0.034	0.902 ± 0.012	1.01 ± 0.1	1.02 ± 0.2	0.897 ± 0.027
UniProt Q96PY6 and related entries	1.03 ± 0.074	1.03 ± 0.06	1.03 ± 0.035	0.993 ± 0.065	1 ± 0.045	1 ± 0.048
PRRC1 (UniProt Q96M27)	0.919 ± 0.033	0.962 ± 0.016	0.91 ± 0.033	0.942 ± 0.03	0.8972 ± 0.0037	0.918 ± 0.034
C9orf72 (UniProt Q96LT7)	1.23 ± 0.4	0.962 ± 0.12	0.928 ± 0.12	0.93 ± 0.1	0.966 ± 0.17	0.981 ± 0.086
REEP6 (UniProt Q96HR9)	0.908 ± 0.12	0.994 ± 0.028	0.978 ± 0.059	0.987 ± 0.029	1.02 ± 0.021	1.02 ± 0.023
WDR92 (UniProt Q96MX6)	1.03 ± 0.087	1.03 ± 0.054	1.01 ± 0.056	0.973 ± 0.039	1.03 ± 0.088	1.06 ± 0.093
RANBP9 (UniProt Q96S59)	1.024 ± 0.0092	0.9622 ± 0.0078	0.983 ± 0.012	0.93 ± 0.08	0.962 ± 0.042	0.976 ± 0.054
UniProt Q96G74 and related entries	0.991 ± 0.037	1 ± 0.024	1.02 ± 0.017	1.05 ± 0.017	0.972 ± 0.013	1.02 ± 0.057
DUS3L (UniProt Q96G46)	1.024 ± 0.007	1.022 ± 0.0065	1.03 ± 0.021	1.06 ± 0.041	1.03 ± 0.046	1 ± 0.03
CHCHD1 (UniProt Q96BP2)	1.05 ± 0.054	0.989 ± 0.026	1 ± 0.09	1.05 ± 0.01	1.03 ± 0.02	0.918 ± 0.18
UniProt Q96IU4 and related entries	0.971 ± 0.042	0.947 ± 0.02	0.927 ± 0.017	0.933 ± 0.051	0.916 ± 0.03	0.919 ± 0.013
UniProt Q96RT1 and related entries	1 ± 0.02	0.984 ± 0.014	0.988 ± 0.021	0.998 ± 0.042	0.994 ± 0.022	1.002 ± 0.0084
OSBPL9 (UniProt Q96SU4)	0.975 ± 0.022	0.987 ± 0.032	0.962 ± 0.016	0.972 ± 0.034	0.965 ± 0.025	0.977 ± 0.036
DCUN1D1 (UniProt Q96GG9)	0.989 ± 0.036	0.979 ± 0.035	0.925 ± 0.05	0.969 ± 0.041	0.939 ± 0.076	0.922 ± 0.048
UniProt Q96K49 and related entries	0.969 ± 0.075	0.958 ± 0.023	0.981 ± 0.012	0.973 ± 0.025	0.949 ± 0.073	0.958 ± 0.029
UniProt Q96CS2	0.997 ± 0.11	0.939 ± 0.044	1 ± 0.087	0.987 ± 0.22	1.06 ± 0.081	0.863 ± 0.077
IFT140 (UniProt Q96RY7)	1.01 ± 0.054	1.01 ± 0.11	1 ± 0.14	0.976 ± 0.15	0.991 ± 0.12	1.01 ± 0.14
UniProt Q96BY6-3	1.04 ± 0.052	1.04 ± 0.028	1.03 ± 0.062	0.993 ± 0.039	1.05 ± 0.034	1.02 ± 0.019
NUDT11 (UniProt Q96G61)	1.01 ± 0.042	0.986 ± 0.034	0.975 ± 0.053	0.975 ± 0.063	1.01 ± 0.06	0.928 ± 0.025
